Data published in PubChem BioAssay AID651610 (Broad Institute, 2012).
The list shows a part of the results, in another mix than the full data. Calls of active or inactive are those of the source.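 How the source made its calls: active means mean replicate inhibition score of at least 50 and every replicate individually at or above 50; inconclusive means only one of the two criteria met; inactive means mean below 50 and not all replicates reaching 50.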

Assay: blockers of JRFL envelope-mediated fusion – HeLa-JRFL effector, CEM21 target cells, luciferase, primary screen (AID 651610);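 further: 0% = plate neutral controls and 100% = maraviroc near 300 nM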
Details: HeLa-JRFL Env/CEM21 cell fusion, at 12.3 µM, active compounds read high

inhibition, active:
Cc1nc2ccccc2c(-c2ccccc2)c1CC(=O)O 61.7%, COc1ccccc1C(=O)NNC(=S)NC(=O)c1ccco1 60.8%, CN(C)C(=O)c1cccc(COc2ccc(N3C(N)=NC(N)=NC3(C)C)cc2Cl)c1 62%
